# Source: patent US10351594B2 (Shanghai Lumosa Therapeutics Co., Ltd., priority 2013, dated 2019)
# Assay: peptide synthesis
# Conditions: late stage modification step
row,Substance,step yield
1,"3S-6,7-dihydroxy-1,1-dimethyl-1,2,3,4-tetrahydro-isoquinoline-3-acyl-Lys(Pro-Ala-Ala)",78%
2,"3S-6,7-dihydroxy-1,1-dimethyl-1,2,3,4-tetrahydro-isoquinoline-3-acyl-Lys(Pro-Ala-Asn)",78%
3,"3S-6,7-dihydroxy-1,1-dimethyl-1,2,3,4-tetrahydro-isoquinoline-3-acyl-Lys(Pro-Ala-Asp)",83%
4,"3S-6,7-dihydroxy-1,1-dimethyl-1,2,3,4-tetrahydro-isoquinoline-3-acyl-Lys(Pro-Ala-Gln)",79%
5,"3S-6,7-dihydroxy-1,1-dimethyl-1,2,3,4-tetrahydro-isoquinoline-3-acyl-Lys(Pro-Ala-Glu)",82%
6,"3S-6,7-dihydroxy-1,1-dimethyl-1,2,3,4-tetrahydro-isoquinoline-3-acyl-Lys(Pro-Ala-Gly)",85%
7,"3S-6,7-dihydroxy-1,1-dimethyl-1,2,3,4-tetrahydro-isoquinoline-3-acyl-Lys(Pro-Ala-Ile)",78%
8,"3S-6,7-dihydroxy-1,1-dimethyl-1,2,3,4-tetrahydro-isoquinoline-3-acyl-Lys(Pro-Ala-Leu)",77%
9,"3S-6,7-dihydroxy-1,1-dimethyl-1,2,3,4-tetrahydro-isoquinoline-3-acyl-Lys(Pro-Ala-Lys)",75%
10,"3S-6,7-dihydroxy-1,1-dimethyl-1,2,3,4-tetrahydro-isoquinoline-3-acyl-Lys(Pro-Ala-Phe)",78%
11,"3S-6,7-dihydroxy-1,1-dimethyl-1,2,3,4-tetrahydro-isoquinoline-3-acyl-Lys(Pro-Ala-Pro)",78%
12,"3S-6,7-dihydroxy-1,1-dimethyl-1,2,3,4-tetrahydro-isoquinoline-3-acyl-Lys(Pro-Ala-Ser)",79%
13,"3S-6,7-dihydroxy-1,1-dimethyl-1,2,3,4-tetrahydro-isoquinoline-3-acyl-Lys(Pro-Ala-Thr)",76%
14,"3S-6,7-dihydroxy-1,1-dimethyl-1,2,3,4-tetrahydro-isoquinoline-3-acyl-Lys(Pro-Ala-Trp)",76%
15,"3S-6,7-dihydroxy-1,1-dimethyl-1,2,3,4-tetrahydro-isoquinoline-3-acyl-Lys(Pro-Ala-Tyr)",74%
16,"3S-6,7-dihydroxy-1,1-dimethyl-1,2,3,4-tetrahydro-isoquinoline-3-acyl-Lys(Pro-Ala-Val)",81%

# Assay: general procedure: solution-phase peptide synthesis
# Conditions: coupling step
row,Substance,step yield
1,"3S-6,7-dihydroxy-1,1-dimethyl-1,2,3,4-tetrahydro-isoquinoline-3-acyl-Lys (Boc-Pro-Ala-Ala)-OBzl",38%
2,"3S-6,7-dihydroxy-1,1-dimethyl-1,2,3,4-tetrahydro-isoquinoline-3-acyl-Lys (Boc-Pro-Ala-Phe)-OBzl",36%
3,"3S-6,7-dihydroxy-1,1-dimethyl-1,2,3,4-tetrahydro-isoquinoline-3-acyl-Lys (Boc-Pro-Ala-Pro)-OBzl",37%
4,"3S-6,7-dihydroxy-1,1-dimethyl-1,2,3,4-tetrahydro-isoquinoline-3-acyl-Lys (Boc-Pro-Ala-Trp)-OBzl",35%
5,"3S-6,7-dihydroxy-1,1-dimethyl-1,2,3,4-tetrahydro-isoquinoline-3-acyl-Lys (Boc-Pro-Ala-Tyr)-OBzl",31%
6,"3S-6,7-dihydroxy-1,1-dimethyl-1,2,3,4-tetrahydro-isoquinoline-3-acyl-Lys (Boc-Pro-Ala-Val)-OBzl",37%
7,"3S-6,7-dihydroxy-1,1-dimethyl-1,2,3,4-tetrahydro-isoquinoline-3-acyl-Lys(Boc-Pro-Ala-Asn)-OBzl",38%
8,"3S-6,7-dihydroxy-1,1-dimethyl-1,2,3,4-tetrahydro-isoquinoline-3-acyl-Lys(Boc-Pro-Ala-Gln)-OBzl",39%
9,"3S-6,7-dihydroxy-1,1-dimethyl-1,2,3,4-tetrahydro-isoquinoline-3-acyl-Lys(Boc-Pro-Ala-Gly)-OBzl",39%
10,"3S-6,7-dihydroxy-1,1-dimethyl-1,2,3,4-tetrahydro-isoquinoline-3-acyl-Lys(Boc-Pro-Ala-Ile)-OBzl",37%
11,"3S-6,7-dihydroxy-1,1-dimethyl-1,2,3,4-tetrahydro-isoquinoline-3-acyl-Lys(Boc-Pro-Ala-Leu)-OBzl",36%
12,"3S-6,7-dihydroxy-1,1-dimethyl-1,2,3,4-tetrahydro-isoquinoline-3-acyl-Lys(Boc-Pro-Ala-Ser)-OBzl",29%
13,"3S-6,7-dihydroxy-1,1-dimethyl-1,2,3,4-tetrahydro-isoquinoline-3-acyl-Lys(Boc-Pro-Ala-Thr)-OBzl",30%
14,"3S-6,7-dihydroxy-1,1-dimethyl-1,2,3,4-tetrahydro-isoquinoline-3-acyl-Lys[Boc-Pro-Ala-Asp(OBzl)]-OBzl",35%
15,"3S-6,7-dihydroxy-1,1-dimethyl-1,2,3,4-tetrahydro-isoquinoline-3-acyl-Lys[Boc-Pro-Ala-Glu(OBzl)]-OBzl",38%
16,"3S-6,7-dihydroxy-1,1-dimethyl-1,2,3,4-tetrahydro-isoquinoline-3-acyl-Lys[Boc-Pro-Ala-Lys(Z)]-OBzl",30%
